Experimental data reported in PubChem BioAssay AID493014 (National Center for Advancing Translational Sciences (NCATS), 2011).
The list shows a part of the results. These are further read-outs of the screen, such as a control signal, another cell line or another target. No call is given for them. Compounds called inactive in the main read-out are mostly missing here. Words in brackets tell the shape of the fitted curve; partial curves, single points and poor fits give uncertain potencies.

Assay: qHTS Assay to Find Inhibitors of Chronic Active B-Cell Receptor Signaling
Conditions: ABC-DLBCL IkBa-CBG/CBR reporter, luminescence ratio (green luciferase fused to IkBa over red control in TMD8 lymphoma cells), 4 h
How it was run: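 Concentration-response series (up to 46 uM) were applied to TMD8 dual-reporter cells for 4 h at 37C with doxycycline. Green/red ratio, after filter-overlap correction, defined %Activity; red signal alone was normalised to basal cells and zero luminescence.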

[1] = measured here: CBR red luminescence, cell number
[2] = measured here: IkBa-CBG green luminescence

SMILES	AC50 [1]	AC50 [2]
CCSc1nnc(NS(=O)(=O)c2ccc(C)cc2)s1	5.17 µM [rising, partial curve, poor fit]	–
Nc1nnc(SC2CCCC2)s1	14.6 µM [rising, partial curve, poor fit]	–
O=C(N/N=C/c1ccco1)c1ccccn1	35.5 µM [falling, single point]	–
COc1ccc(CN2CCC(CO)(Cc3ccccc3C(F)(F)F)CC2)c(F)c1	4.47 µM [rising, single point]	–
COc1ccc2c3c(cccc13)N(C)N=C2C	35.5 µM [rising, single point]	–
Cc1onc(-c2c(F)cccc2Cl)c1C(=O)NCc1cccs1	29.1 µM [rising, single point]	–
O=S(=O)(N/N=C1\CCCc2ccccc21)c1ccccc1	1.16 µM [falling, partial curve, poor fit]	–
CC(C)c1ccc(NS(=O)(=O)c2ccc3[nH]cc(C(=O)NCCc4ccccc4)c(=O)c3c2)cc1	10 µM [rising, single point]	–
COc1ccc(CN(C)CC(O)COC(c2ccccc2)c2ccccc2)c(OC)c1OC (stereo unspecified)	12.6 µM [falling, partial curve, poor fit]	–
CCc1ccc2c(COn3nnc4ccc(S(=O)(=O)N(C)C)cc43)cc(=O)oc2c1	15.8 µM [rising, partial curve]	20 µM [falling, single point]
C/C(=N/NC(=O)c1ccc2c(c1)OCO2)c1cccc([N+](=O)[O-])c1	4.47 µM [falling, full curve]	–
Cc1cc(C)cc(N(CC(=O)N2CCC(C)CC2)S(C)(=O)=O)c1	13 µM [rising, partial curve, poor fit]	–
O=C(NCC1CCCO1)C1CCC(=O)N1CCc1ccccc1 (stereo unspecified)	14.1 µM [rising, partial curve, poor fit]	–
COc1ccc(Cl)cc1NC(=O)C(C)N(C)Cc1cccc(Cl)c1Cl (stereo unspecified)	6.51 µM [rising, partial curve, poor fit]	–
Oc1ccccc1-c1n[nH]c(=S)n1Cc1ccco1	16.4 µM [rising, single point]	–
N/C(=N\OC(=O)CCC1CCCCC1)c1ccccn1	0.708 µM [rising, full curve, poor fit]	–
O=c1/c(=C/c2ccc(CNS(=O)(=O)c3ccccc3)o2)sc2n1CCN=2	1.78 µM [falling, full curve, poor fit]	–
Nc1nc(SCc2ccccc2Cl)ns1	13 µM [rising, partial curve, poor fit]	–
CCC[C@@H](NS(=O)(=O)c1ccc(C)cc1)C(=O)Oc1ccc2c3c(c(=O)oc2c1)CCC3	29.1 µM [falling, single point]	–
COc1cc(NC(=O)c2ccccc2Cl)ccc1NC(=O)c1ccco1	20 µM [falling, partial curve, poor fit]	–
CC[C@]12c3[nH]c4ccc(Cl)cc4c3CCN1C(=O)[C@@H](CC(=O)NC(C)(C)C)C[C@@H]2C(=O)N1CCN(C(=O)c2ccco2)CC1	8.2 µM [falling, partial curve]	–
Cc1ccc2c(Cl)cc(Cl)c(OCC(=O)Nc3ccc(C)c(S(=O)(=O)N(C)C)c3)c2n1	11.6 µM [rising, partial curve, poor fit]	–

SMILES	AC50 [1]	AC50 [2]
Cc1ccc(N2CC(C(=O)Nc3ncc([N+](=O)[O-])s3)CC2=O)cc1 (stereo unspecified)	31.6 µM [falling, single point]	–
CCOC(=O)c1ccc(NC(=O)CNC(=O)C2CCCCC2)cc1	0.891 µM [rising, partial curve, poor fit]	–
CC(=O)Nc1ccc(NC(=O)CSc2nnc(-c3ccco3)n2Cc2ccco2)cc1	2.51 µM [rising, single point]	–
CCN1C(=O)c2n[nH]c(C(=O)OC)c2C1=O	1.58 µM [falling, partial curve, poor fit]	–
O=C(NNC(=O)C1CCN(Cc2ccccc2)CC1)c1cccc(Cl)c1	29.1 µM [falling, single point]	–
CCCN(C(=O)COC(=O)CC1CCCCC1)c1c(N)n(Cc2ccccc2)c(=O)[nH]c1=O	0.092 µM [falling, full curve, poor fit]	–
NS(=O)(=O)c1ccc(NC=C2C(=O)OC3(CCCCC3)OC2=O)cc1	12.6 µM [rising, single point]	–
Cc1cc(N=Nc2ccccc2)c(NCC(O)C(O)C(O)CO)cc1C (stereo unspecified)	22.4 µM [rising, single point]	–
CCSc1nc2sc3c(c2c(=O)n1-c1ccccc1C)CCN(C)C3	20 µM [rising, single point]	–
Cn1cc(C(=O)N/N=C/c2ccc3c(c2)OCO3)c2ccccc21	14.1 µM [falling, partial curve, poor fit]	–
Cc1nc2c3cnn(-c4ccccc4)c3ncn2n1	0.116 µM [falling, full curve, poor fit]	–
COc1ccc(-c2cc(C(=O)Nc3cc(C)nn3-c3ccccc3)no2)cc1	0.631 µM [rising, full curve, poor fit]	–
Cc1ccc2nc(/C(C#N)=C\c3ccc(N4CCOCC4)o3)[nH]c2c1	11.6 µM [falling, single point]	–
O=C(N/N=C\c1cc2c(cc1[N+](=O)[O-])OCO2)c1cccs1	35.5 µM [falling, single point]	–
CCN(C(=O)CSc1nc2nc(C)cc(C)n2n1)c1cccc(C)c1	12.6 µM [rising, partial curve]	–
O/C(=C\c1nc2ccccc2[nH]1)c1cccs1	35.5 µM [falling, single point]	–
CCOC(=O)c1c(-c2ccc(-c3ccccc3)cc2)csc1NC(=O)CNCCN(C)C	–	35.5 µM [falling, single point]
O=C(/C=C/c1ccco1)N(Cc1ccccc1F)C1CCS(=O)(=O)C1 (stereo unspecified)	35.5 µM [rising, single point]	–
Cc1ccc(O)c(C(=O)CC(=O)c2ccc(Cl)cc2)c1	0.891 µM [rising, full curve, poor fit]	–
COc1cc(C(=O)Nc2ccc(C)cc2)c2ccccc2n1	12.6 µM [rising, partial curve, poor fit]	10 µM [falling, partial curve]
CC(=O)Nc1ccc(C(=O)Nc2cc(C(F)(F)F)ccc2-n2cnc3ccccc32)cc1	6.51 µM [rising, single point]	–
OC(CON=C1c2ccccc2-c2ccccc21)CN1CCNCC1 (stereo unspecified)	14.1 µM [falling, single point]	–

SMILES	AC50 [1]	AC50 [2]
O=Cc1ccccc1OCc1nnsc1Cl	8.91 µM [rising, partial curve, poor fit]	–
O=C(NCCNC(=O)c1ccc(-c2ccc(Cl)c(Cl)c2)o1)c1cnccn1	11.2 µM [rising, partial curve]	–
Cc1ccc(-c2[nH]c3cc(C(N)=O)ccc3c(=O)c2O)cc1	4.47 µM [rising, single point]	–
O=C1CN(C(=O)c2ccccc2F)C(c2ccc(F)cc2)c2cc(Br)ccc2N1 (stereo unspecified)	2.82 µM [falling, full curve, poor fit]	–
COc1ccc(CSCC(=O)N/N=C/c2ccccc2OCc2ccccc2)cc1	20.6 µM [falling, partial curve]	–
Fc1ccc(/C=N/Nc2nc3ccccc3[nH]2)cc1F	35.5 µM [falling, single point]	–
CCC1(c2ccc(Cl)cc2)NC(=O)N(CC(=O)NC2CCCC(C)C2C)C1=O (stereo unspecified)	2.06 µM [falling, partial curve]	–
O=C(c1sc2ccccc2c1Cl)N1CCN(c2ncccn2)CC1	2.31 µM [rising, partial curve]	–
CCOC(=O)c1sc(N2C(=O)C(O)=C(C(=O)c3ccco3)C2c2ccco2)nc1C (stereo unspecified)	5.62 µM [falling, partial curve, poor fit]	–
O=C(CCc1nc2ccccc2c(=O)[nH]1)Nc1cc(Cl)ccc1N1CCCC1	0.58 µM [rising, full curve]	–
COc1ccc(CCNC(=O)C(NC(=O)OCc2ccccc2)C(C)C)cc1OC (stereo unspecified)	3.98 µM [rising, full curve, poor fit]	–
COc1ccc(-c2noc(CN(C(=O)c3ccc4c(c3)OCO4)C(C)C)n2)cc1OC	6.51 µM [rising, single point]	–
CCOC(=O)N1CCN(C(=S)NC(=O)c2ccc(F)cc2)CC1	11.2 µM [rising, partial curve, poor fit]	–
Cc1cc(C)cc(N(C(C)C(=O)NCCC2=CCCCC2)S(C)(=O)=O)c1 (stereo unspecified)	20.6 µM [rising, single point]	–
O=C(Nc1ccc(Cl)cn1)c1cc2ccccc2o1	6.51 µM [falling, full curve]	–
O=c1oc2cccnc2n1CCS(=O)(=O)c1ccc(F)cc1	7.08 µM [falling, partial curve]	–
Cc1ccc(NC(=O)c2cc(S(=O)(=O)NC3CCCCC3)ccc2F)cc1Cl	6.31 µM [falling, partial curve, poor fit]	–
O=C1c2ccccc2NC(c2ccc(-c3cccc([N+](=O)[O-])c3)o2)N1O (stereo unspecified)	8.2 µM [falling, partial curve]	–
COC(=O)C1CCN(CC(=O)Nc2ccc3c(c2)OCCO3)CC1	29.1 µM [rising, single point]	–
O=C(CSc1ncn(-c2ccccc2)n1)Nc1nc2ccccc2s1	0.13 µM [rising, full curve, poor fit]	–
